Assay results published in paper PMC5379069, “A Pseudomonas T6SS effector recruits PQS-containing outer membrane vesicles for iron acquisition” (Nature Communications, 2017).

Protein sequences, listed by entry. Tags and fused reporters are not part of them. Lines headed by an entry give the natural chain unless they say otherwise; changes in a name come on top.
UniProt Q9I1A5: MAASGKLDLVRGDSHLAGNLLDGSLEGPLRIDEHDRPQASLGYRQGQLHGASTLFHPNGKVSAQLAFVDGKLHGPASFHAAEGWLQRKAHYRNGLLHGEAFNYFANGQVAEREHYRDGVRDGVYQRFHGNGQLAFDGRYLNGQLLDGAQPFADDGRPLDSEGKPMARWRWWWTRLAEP
UniProt Q9I1A6: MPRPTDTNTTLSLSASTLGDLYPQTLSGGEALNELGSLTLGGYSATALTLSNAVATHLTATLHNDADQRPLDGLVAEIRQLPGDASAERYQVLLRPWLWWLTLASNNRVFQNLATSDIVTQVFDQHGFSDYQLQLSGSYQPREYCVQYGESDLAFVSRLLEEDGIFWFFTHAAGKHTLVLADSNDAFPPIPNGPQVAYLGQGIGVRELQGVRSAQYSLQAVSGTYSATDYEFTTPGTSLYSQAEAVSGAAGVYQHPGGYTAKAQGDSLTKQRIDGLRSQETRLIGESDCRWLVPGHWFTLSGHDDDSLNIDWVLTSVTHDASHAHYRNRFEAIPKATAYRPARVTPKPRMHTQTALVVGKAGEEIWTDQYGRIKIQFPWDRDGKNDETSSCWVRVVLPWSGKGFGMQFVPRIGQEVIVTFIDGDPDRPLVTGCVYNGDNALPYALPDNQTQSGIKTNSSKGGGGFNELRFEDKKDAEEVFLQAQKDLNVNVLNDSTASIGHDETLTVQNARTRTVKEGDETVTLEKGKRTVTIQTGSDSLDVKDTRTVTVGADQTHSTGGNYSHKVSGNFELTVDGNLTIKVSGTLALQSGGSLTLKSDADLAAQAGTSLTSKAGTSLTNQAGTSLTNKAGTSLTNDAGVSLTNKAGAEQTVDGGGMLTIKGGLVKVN
UniProt Q9HVY9: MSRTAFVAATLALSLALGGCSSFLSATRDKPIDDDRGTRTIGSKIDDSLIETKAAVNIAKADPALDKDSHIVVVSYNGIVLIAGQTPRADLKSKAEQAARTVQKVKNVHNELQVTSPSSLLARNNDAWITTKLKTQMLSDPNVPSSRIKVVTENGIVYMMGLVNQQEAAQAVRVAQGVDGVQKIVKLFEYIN

B1: His6-OprF (protein, UniProt P13794 25-350)
chain: QGQNSVEIEAFGKRYFTDSVRNMKNADLYGGSIGYFLTDDVELALSYGEYHDVRGTYETGNKKVHGNLTSLDAIYHFGTPGVGLRPYVSAGLAHQNITNINSDSQGRQQMTMANIGAGLKYYFTENFFAKASLDGQYGLEKRDNGHQGEWMAGLGVGFNFGGSKAAPAPEPVADVCSDSDNDGVCDNVDKCPDTPANVTVDANGCPAVAEVVRVQLDVKFDFDKSKVKENSYADIKNLADFMKQYPSTSTTVEGHTDSVGTDAYNQKLSERRANAVRDVLVNEYGVEGGRVNAVGYGESRPVADNATAEGRAINRRVEAEVEAEAK
B2: FptA_(1–186) (domain or fragment, UniProt P42512 39-186)
chain: DARKDGETELPDMVISGESTSATQPPGVTTLGKVPLKPRELPQSASVIDHERLEQQNLFSLDEAMQQATGVTVQPFQLLTTAYYVRGFKVDSFELDGVPALLGNTASSPQDMAIYERVEILRGSNGLLHGTGNPAATVNLVRKRPQRE

Tests used:
[1] = target: T1, PA0533 (Pseudomonas aeruginosa PAO1) (UniProt Q9I603); experiment: pull-down; only the target purified
T1 sequence: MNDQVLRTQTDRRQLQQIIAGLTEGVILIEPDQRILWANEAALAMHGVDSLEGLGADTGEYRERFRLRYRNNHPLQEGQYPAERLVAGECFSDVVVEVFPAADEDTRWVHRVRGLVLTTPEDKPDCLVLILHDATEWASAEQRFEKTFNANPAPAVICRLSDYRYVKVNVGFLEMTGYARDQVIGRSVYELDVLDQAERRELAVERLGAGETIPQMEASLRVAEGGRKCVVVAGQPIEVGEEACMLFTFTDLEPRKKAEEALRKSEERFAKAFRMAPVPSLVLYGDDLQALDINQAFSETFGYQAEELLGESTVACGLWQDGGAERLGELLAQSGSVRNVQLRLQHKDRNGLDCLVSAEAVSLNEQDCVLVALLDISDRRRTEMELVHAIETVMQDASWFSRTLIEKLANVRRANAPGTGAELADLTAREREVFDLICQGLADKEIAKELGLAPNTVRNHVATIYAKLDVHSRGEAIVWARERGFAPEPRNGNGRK

[2] = target: GST-TseF (Pseudomonas aeruginosa PAO1) (UniProt Q9I1A5); experiment: condition: 10 μg GST-fusion protein with 10 μg His-tagged protein; pull-down; 10 μg purified GST-fusion protein mixed with 10 μg His-tagged protein in PBS, 2 h at 4 °C; glutathione beads; washed five times with TEN buffer containing 500 mM NaCl; immunoblot; both purified
[3] = target: GST-TseF (Pseudomonas aeruginosa PAO1) (UniProt Q9I1A5); experiment: pull-down; 10 μg purified GST-fusion protein mixed with 10 μg His-tagged protein in PBS, 2 h at 4 °C; glutathione beads; washed five times with TEN buffer containing 500 mM NaCl; immunoblot; both purified

Row | Molecule | binding [3] | also measured
1 | VgrG3-VSVG (from UniProt Q9I1A6) |  | binding [1]: no binding
2 | PA4426 (recombinant) (from UniProt Q9HVY9) |  | binding [2]: no binding
3 | B1 | binds | 
4 | B2 | binds | 

These are yes or no findings as the source states them, for the method shown. For some of these results: A result given as binding can be weak or reduced; the word gives no strength. For some of these results: Tags and fused reporters may be left off the sequences shown. For some of these results: In cells and extracts the contact can be indirect.
